Experimental data published in the supplement of paper PMC10849652.
Some of the results follow.

Chains of the proteins cited; added tags and fusions are not shown. Lines headed by an entry give the natural chain unless they say otherwise; changes in a name come on top.
UniProt Q96IU4: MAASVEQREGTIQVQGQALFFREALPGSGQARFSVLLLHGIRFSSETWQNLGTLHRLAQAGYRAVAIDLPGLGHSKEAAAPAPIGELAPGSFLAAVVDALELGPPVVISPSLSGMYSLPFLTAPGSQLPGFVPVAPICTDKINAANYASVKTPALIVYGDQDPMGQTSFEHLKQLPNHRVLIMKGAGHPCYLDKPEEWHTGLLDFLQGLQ
UniProt Q9NRG9: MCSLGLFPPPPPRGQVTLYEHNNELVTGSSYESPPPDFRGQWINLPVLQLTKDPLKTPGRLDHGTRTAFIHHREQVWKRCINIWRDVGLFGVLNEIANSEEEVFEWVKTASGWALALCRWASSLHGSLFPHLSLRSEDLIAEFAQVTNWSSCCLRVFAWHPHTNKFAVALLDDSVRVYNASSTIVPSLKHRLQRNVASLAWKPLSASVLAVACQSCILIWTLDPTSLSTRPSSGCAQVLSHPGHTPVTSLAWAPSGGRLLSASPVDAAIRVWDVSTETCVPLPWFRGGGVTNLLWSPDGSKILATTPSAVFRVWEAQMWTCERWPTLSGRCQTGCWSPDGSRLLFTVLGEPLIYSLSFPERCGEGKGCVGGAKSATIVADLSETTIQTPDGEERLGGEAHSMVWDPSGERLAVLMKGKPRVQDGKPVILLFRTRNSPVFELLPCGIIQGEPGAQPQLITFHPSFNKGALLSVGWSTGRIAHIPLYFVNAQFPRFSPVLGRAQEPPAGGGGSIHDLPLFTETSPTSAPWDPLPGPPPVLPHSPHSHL
UniProt P24752: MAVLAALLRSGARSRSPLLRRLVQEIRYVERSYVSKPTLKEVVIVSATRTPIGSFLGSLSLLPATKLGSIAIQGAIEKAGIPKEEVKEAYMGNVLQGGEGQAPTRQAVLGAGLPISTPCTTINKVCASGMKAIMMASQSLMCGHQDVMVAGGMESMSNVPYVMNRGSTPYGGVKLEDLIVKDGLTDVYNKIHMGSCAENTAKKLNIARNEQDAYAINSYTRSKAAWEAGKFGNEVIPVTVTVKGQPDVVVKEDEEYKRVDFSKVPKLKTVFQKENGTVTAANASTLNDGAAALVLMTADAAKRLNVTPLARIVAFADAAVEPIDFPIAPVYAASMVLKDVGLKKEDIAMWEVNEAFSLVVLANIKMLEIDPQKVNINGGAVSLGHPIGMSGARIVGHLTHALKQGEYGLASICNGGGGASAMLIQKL
UniProt P49588, whole entry, looked up: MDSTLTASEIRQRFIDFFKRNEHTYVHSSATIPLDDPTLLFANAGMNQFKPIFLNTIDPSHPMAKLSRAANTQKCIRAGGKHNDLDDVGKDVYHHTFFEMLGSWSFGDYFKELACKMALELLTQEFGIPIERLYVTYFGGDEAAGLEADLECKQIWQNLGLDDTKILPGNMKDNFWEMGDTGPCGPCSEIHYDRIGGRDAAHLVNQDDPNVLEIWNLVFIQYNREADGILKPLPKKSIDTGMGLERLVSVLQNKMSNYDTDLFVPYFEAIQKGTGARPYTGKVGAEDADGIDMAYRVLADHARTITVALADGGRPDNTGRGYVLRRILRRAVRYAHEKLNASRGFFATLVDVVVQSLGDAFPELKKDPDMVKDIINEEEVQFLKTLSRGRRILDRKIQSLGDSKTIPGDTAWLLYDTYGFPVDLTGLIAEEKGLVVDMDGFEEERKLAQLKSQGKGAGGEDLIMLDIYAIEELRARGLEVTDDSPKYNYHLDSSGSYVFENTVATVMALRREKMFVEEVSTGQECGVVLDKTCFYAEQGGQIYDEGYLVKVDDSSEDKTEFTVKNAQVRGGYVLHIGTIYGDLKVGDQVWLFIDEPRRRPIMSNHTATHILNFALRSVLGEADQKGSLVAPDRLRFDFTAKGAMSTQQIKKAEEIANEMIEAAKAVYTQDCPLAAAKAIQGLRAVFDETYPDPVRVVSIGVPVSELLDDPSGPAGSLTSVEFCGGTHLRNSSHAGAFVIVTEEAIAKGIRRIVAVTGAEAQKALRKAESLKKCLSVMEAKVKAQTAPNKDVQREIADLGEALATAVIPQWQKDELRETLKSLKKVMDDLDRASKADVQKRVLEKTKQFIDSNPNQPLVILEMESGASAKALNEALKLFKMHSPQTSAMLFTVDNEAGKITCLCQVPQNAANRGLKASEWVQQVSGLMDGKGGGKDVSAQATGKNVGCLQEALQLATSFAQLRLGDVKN
UniProt P11310: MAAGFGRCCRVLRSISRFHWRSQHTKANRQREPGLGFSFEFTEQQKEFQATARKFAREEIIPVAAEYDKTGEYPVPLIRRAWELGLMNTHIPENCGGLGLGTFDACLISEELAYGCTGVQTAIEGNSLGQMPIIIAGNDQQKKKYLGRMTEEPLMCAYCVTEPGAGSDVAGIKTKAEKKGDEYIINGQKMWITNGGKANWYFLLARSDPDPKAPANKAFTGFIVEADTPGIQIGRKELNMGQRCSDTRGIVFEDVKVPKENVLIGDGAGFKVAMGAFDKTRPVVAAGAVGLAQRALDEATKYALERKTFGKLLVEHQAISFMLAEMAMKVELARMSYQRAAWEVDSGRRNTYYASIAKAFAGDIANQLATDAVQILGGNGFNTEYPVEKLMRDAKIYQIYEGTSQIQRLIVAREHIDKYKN
UniProt P53396: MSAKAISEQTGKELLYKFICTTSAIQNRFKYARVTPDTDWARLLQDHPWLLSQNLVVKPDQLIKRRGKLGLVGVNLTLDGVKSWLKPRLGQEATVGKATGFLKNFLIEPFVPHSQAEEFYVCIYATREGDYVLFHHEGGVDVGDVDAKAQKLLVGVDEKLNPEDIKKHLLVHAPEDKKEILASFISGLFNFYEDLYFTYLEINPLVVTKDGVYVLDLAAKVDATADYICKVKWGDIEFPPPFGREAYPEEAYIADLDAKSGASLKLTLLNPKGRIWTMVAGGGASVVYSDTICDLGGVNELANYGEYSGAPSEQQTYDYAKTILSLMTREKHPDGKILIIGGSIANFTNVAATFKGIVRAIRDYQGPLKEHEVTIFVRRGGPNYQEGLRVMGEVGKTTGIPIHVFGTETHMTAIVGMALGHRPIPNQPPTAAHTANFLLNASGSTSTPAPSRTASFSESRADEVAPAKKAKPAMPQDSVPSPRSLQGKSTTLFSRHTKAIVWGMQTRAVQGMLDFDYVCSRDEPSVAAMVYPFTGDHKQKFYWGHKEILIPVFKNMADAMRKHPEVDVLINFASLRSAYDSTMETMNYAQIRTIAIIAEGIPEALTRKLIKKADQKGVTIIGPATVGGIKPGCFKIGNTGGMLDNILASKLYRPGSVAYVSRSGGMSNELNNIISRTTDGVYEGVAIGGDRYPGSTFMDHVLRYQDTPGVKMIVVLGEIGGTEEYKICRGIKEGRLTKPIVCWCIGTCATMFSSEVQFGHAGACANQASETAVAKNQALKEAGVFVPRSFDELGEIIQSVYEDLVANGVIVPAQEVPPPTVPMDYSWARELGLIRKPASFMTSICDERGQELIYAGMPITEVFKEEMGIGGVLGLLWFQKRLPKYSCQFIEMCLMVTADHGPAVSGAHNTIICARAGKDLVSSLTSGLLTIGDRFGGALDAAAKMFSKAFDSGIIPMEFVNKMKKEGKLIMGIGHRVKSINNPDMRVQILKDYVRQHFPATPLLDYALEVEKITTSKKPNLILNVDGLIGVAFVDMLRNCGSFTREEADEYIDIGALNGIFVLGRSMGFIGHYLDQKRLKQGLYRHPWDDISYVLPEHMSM
UniProt P12821, whole entry, looked up: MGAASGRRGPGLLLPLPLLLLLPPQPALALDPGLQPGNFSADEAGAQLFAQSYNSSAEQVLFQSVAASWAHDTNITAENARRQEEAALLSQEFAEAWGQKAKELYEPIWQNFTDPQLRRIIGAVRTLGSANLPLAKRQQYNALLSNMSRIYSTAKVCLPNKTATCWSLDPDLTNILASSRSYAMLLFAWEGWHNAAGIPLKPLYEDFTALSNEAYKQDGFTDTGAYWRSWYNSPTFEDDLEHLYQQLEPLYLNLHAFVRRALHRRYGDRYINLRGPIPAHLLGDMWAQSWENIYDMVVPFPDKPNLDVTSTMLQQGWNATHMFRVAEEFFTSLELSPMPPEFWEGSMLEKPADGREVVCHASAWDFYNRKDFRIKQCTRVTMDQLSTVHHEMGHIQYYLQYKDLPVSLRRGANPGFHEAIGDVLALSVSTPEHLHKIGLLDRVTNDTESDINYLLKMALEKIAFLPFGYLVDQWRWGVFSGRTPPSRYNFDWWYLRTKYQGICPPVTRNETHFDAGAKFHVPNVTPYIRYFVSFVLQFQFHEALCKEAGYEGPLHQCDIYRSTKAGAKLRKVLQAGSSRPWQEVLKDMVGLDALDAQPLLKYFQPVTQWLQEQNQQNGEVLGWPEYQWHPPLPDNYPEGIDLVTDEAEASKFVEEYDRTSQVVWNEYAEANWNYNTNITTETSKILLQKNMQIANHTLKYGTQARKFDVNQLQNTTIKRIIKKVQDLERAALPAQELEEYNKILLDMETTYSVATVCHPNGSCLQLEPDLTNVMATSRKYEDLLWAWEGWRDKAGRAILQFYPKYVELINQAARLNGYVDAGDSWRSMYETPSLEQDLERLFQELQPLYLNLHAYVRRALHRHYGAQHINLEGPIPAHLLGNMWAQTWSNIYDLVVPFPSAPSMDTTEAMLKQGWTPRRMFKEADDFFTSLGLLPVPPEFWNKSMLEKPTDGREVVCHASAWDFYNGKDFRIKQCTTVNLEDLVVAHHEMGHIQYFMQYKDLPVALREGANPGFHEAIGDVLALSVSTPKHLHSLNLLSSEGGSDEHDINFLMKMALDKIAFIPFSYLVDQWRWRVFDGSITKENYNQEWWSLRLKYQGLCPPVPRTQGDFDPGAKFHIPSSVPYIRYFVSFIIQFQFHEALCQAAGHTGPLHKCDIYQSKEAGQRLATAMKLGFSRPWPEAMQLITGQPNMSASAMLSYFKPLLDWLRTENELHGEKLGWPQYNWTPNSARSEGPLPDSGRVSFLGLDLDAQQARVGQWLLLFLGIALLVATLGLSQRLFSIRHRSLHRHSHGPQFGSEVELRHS
UniProt Q9BR61: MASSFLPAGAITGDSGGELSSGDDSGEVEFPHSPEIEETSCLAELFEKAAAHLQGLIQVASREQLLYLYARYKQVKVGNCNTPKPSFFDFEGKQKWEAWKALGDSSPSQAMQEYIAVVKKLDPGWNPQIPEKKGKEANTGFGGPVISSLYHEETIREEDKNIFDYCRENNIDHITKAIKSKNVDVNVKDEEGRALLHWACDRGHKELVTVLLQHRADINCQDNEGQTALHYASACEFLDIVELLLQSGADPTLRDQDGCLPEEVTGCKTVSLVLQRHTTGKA
UniProt Q9NPJ3: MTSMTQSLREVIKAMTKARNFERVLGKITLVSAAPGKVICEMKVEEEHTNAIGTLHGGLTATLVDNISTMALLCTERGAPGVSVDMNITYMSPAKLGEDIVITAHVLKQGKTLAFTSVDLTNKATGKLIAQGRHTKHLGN
UniProt Q8N961, whole entry, looked up: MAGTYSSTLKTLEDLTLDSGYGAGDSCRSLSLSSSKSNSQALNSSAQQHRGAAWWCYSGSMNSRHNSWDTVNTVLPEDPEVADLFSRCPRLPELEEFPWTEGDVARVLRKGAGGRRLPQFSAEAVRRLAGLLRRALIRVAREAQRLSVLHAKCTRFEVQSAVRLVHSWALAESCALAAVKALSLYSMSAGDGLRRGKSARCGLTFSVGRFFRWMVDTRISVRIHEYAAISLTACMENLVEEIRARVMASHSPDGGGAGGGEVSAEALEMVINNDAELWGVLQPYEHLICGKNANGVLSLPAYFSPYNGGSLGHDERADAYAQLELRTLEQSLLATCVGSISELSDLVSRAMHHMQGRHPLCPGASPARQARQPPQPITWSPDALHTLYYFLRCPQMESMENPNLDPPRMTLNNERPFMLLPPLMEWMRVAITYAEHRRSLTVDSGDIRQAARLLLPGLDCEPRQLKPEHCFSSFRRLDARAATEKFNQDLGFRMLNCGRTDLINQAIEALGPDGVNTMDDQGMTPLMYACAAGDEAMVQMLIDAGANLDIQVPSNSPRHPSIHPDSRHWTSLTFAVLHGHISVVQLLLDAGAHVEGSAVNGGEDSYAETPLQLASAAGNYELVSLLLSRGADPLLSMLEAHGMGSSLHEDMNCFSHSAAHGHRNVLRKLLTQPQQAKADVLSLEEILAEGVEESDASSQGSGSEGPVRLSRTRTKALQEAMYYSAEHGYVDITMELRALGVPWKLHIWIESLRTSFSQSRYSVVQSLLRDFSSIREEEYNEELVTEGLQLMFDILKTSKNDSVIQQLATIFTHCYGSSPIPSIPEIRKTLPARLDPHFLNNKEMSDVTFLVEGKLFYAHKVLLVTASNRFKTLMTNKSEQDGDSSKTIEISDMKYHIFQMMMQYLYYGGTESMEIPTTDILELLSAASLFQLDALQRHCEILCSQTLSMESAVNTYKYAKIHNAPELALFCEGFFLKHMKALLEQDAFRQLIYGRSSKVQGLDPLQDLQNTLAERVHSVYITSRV

What was measured:
Assay in all cases: log2 fold change, soluble protein after heating vs DMSO (PISA); higher = thermal stabilisation; K562 lysate, 10 uM; active = over 0.2 and 3.5 SD of the protein, either way, in both replicates (recomputed)
[1] = compound: C1=CC=C(C=C1)[C@H](COC2=CC3=C(C=C2)NC(=O)N3)NC(=O)C4=CC=CN(C4=O)CC5=CC(=C(C=C5)F)F
How it was run: (§1)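 K562 pellets were dounce-homogenised in PBS pH 7.4 containing 1 mM MgCl2, and the crude extract, at 1 mg/mL protein, was exposed to 10 μM compound for 30 min. Aliquots were heated for 3 min across 48°C-58°C, pooled, brought to 0.5% NP-40 at 4°C and spun at 21,000xg for 90 min, with the supernatant taken as soluble protein. TMTpro 16plex LC-MS/MS with equalised channel sums quantified that protein. Values are log-two fold changes in thermal stability relative to solvent controls, taken from duplicates.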

[2] = compound: CC1=C(SC2=C1C(=N[C@H](C3=NN=C(N32)C)CC(=O)N)C4=CC=C(C=C4)Cl)C
How it was run: as §1

[3] = compound: CC1=C2C(=CC=C1)N=C(N(C2=O)C3=CC=CC=C3C)CN4C=NC5=C(N=CN=C54)N
How it was run: as §1

[4] = compound: Cc1sc2c(c1C)C(c1ccc(Cl)cc1)=N[C@@H](CC(=O)OC(C)(C)C)c1nnc(C)n1-2
How it was run: as §1

[5] = compound: c1ccc([C@@H]2C[C@H]2NC2CCNCC2)cc1
How it was run: as §1

Measured: log2 fold change

ABHD14B (UniProt Q96IU4)
inactive: [1] -0.047 | [2] 0.015 | [3] 0.007 | [4] -0.028 | [5] -0.019

ACACA isoform 4 (UniProt Q13085)
inactive: [1] 0.001 | [2] 0.027 | [3] 0.019 | [4] 0.027 | [5] 0.085

ABCF2 isoform 2 (UniProt Q9UG63)
inactive: [1] -0.022 | [2] -0.011 | [3] 0.04 | [4] -0.019 | [5] 0.055

AAAS (UniProt Q9NRG9)
inactive: [1] 0.028 | [2] -0.006 | [3] -0.035 | [4] 0.042 | [5] 0.059

ABI2 (UniProt Q9NYB9)
inactive: [1] -0.021 | [2] 0.035 | [3] 0.052 | [4] -0.011 | [5] 0.073

2 entries picked at random from those above, as already listed:
ABHD14B (UniProt Q96IU4)
inactive: [1] -0.047 | [2] 0.015 | [3] 0.007 | [4] -0.028 | [5] -0.019

ABI2 (UniProt Q9NYB9)
inactive: [1] -0.021 | [2] 0.035 | [3] 0.052 | [4] -0.011 | [5] 0.073

More results follow.

ACAT1 (UniProt P24752)
inactive: [1] -0.007 | [2] 0.029 | [3] -0.016 | [4] 0.031 | [5] 0.024

AARS (UniProt P49588)
inactive: [1] -0.01 | [2] 0 | [3] -0.008 | [4] 0.022 | [5] 0.008

ABRAXAS2 (UniProt Q15018)
inactive: [1] 0.004 | [2] -0.03 | [3] -0.024 | [4] 0.061 | [5] -0.005

ACADM isoform 2 (UniProt P11310)
inactive: [1] -0.071 | [2] -0.035 | [3] 0.043 | [4] 0.017 | [5] 0.013

ABCE1 (UniProt P61221)
inactive: [1] -0.017 | [2] -0.005 | [3] -0.01 | [4] 0.028 | [5] -0.011

ACLY (UniProt P53396)
inactive: [1] 0.011 | [2] 0.03 | [3] 0.004 | [4] 0.03 | [5] 0.023

ACE (UniProt P12821)
inactive: [3] 0.015

ACBD6 (UniProt Q9BR61)
inactive: [1] 0.014 | [2] 0.019 | [3] -0.009 | [4] -0.045 | [5] -0.022

ACOT13 (UniProt Q9NPJ3)
inactive: [1] 0.023 | [2] 0.017 | [3] -0.029 | [4] 0.007 | [5] 0.035

ABTB2 (UniProt Q8N961)
inactive: [1] -0.162 | [2] 0.228 | [5] 0.139
